Measurements reported in PubChem BioAssay AID504467 (National Center for Advancing Translational Sciences (NCATS), 2011).
Screen size: about 330,000 compounds; about 7,700 (2.3%) were called active. This list was built around the results that the source calls inconclusive (neither active nor inactive); the mix of calls is not that of the screen. The call rests on the fitted dose curve; in most records, active means well fitted inhibition curve with a large enough effect; inconclusive means small, poorly fitted or top-dose-only effect, or effect the other way; inactive means flat fitted curve, though single readings scatter. Potencies beside an inconclusive call are fits to weak or partial responses and may not hold up.

Assay: qHTS screen for small molecules that inhibit ELG1-dependent DNA repair in human embryonic kidney (HEK293T) cells expressing luciferase-tagged ELG1; further: nearly all actives have a fitted effect of over 55% in size
Conditions: HEK293T ELG1-luciferase reporter, luminescence, 16 h, DNA damage induced by 5-fluorouridine; activity change, negative = inhibition: at 46.1 µM (top of the series)
Method in brief: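 DMSO vehicle served as the neutral condition. Each well held 2,000 cells given 5-fluorouridine plus compound; after 16 hr at 37 °C/5% CO2, ONE-Glo was added and luciferase measured 30 min later.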
On the % scale 0 is the no-effect control and ±100 the full control effect; potency means the concentration at half of the fitted maximal effect.

SMILES	activity change, negative = inhibition	Potency
Cc1cccc(N2CCN(C(=S)NC3CCCCC3)CC2)c1C	inactive: -8%	–
CC(O)CNC(=O)c1ccc(-c2nn(C)c(=O)c3ccccc23)cc1 (stereo not given)	–	inconclusive: 23.1 µM [activator, single point]
Cc1ccc(OCCn2ccc(=O)[nH]c2=O)cc1C	inactive: -1.11%	–
O=C(COC(=O)CCNS(=O)(=O)c1ccccc1)NNC(=O)c1ccccc1	inactive: 6.93%	–
CCOC(=O)c1ccc(NC(=O)Cn2nnc3ccccc32)cc1	–	inconclusive: 2.06 µM [activator, full curve]
CCC(C)NC(=O)CSc1nnc(-c2cc(OC)c(OC)c(OC)c2)c(-c2cc(OC)c(OC)c(OC)c2)n1 (stereo not given)	–	inconclusive: 18.3 µM [activator, partial curve]
COc1cc(CO)ccc1OCC(=O)Nc1ccc(Br)cc1	–	inconclusive: 20.6 µM [activator, partial curve]
Oc1ccc(NCc2ccc(OCc3ccccc3)cc2)cc1	–	inconclusive: 29.1 µM [activator, single point]
CCOc1ccc(OCCC(=O)OCC(=O)Nc2cc(S(=O)(=O)N3CCOCC3)ccc2C)cc1	–	inconclusive: 29.1 µM [activator, partial curve, poor fit]
Cc1ccccc1OCC(=O)OC(C(=O)c1ccccc1)c1ccccc1 (stereo not given)	inactive: 6.21%	–
COc1ccc(N2CCN(C(=O)c3cc4c(-c5cccc(OC)c5)nn(C)c4s3)CC2)cc1	–	inconclusive: 7.31 µM [inhibitor, single point]
Cn1c(-c2ccc(F)cc2)cc2onc(-c3c(F)cccc3Cl)c2c1=O	–	inconclusive: 2.31 µM [activator, full curve]
CCCN(CCC)S(=O)(=O)c1ccc(C(=O)Nc2nnc(CSC)o2)cc1	–	inconclusive: 18.4 µM [inhibitor, partial curve, poor fit]
COc1ccc(/C=C/C(=O)OC2CCCN(C)C2)cc1 (stereo not given)	–	inconclusive: 29.1 µM [activator, single point]
COc1ccc2[nH]c3c(=O)n(Cc4ccco4)cnc3c2c1	–	inconclusive: 1.84 µM [inhibitor, partial curve, poor fit]
O=S(=O)(NCCCc1ccccc1)c1ccccc1	inactive: 0.375%	–
CCOc1ccc(Oc2cc(NC(=O)c3ccco3)cc([N+](=O)[O-])c2)cc1	–	inconclusive: 20.6 µM [inhibitor, single point]
CCOc1ccccc1C1N=C(c2ccc(OC)cc2)CC(c2ccccc2O)N1 (stereo not given)	–	inconclusive: 29.1 µM [activator, single point]
Cc1nc2ccc([N+](=O)[O-])cc2c(=O)n1Cc1ccccc1Br	inactive: 11.1%	–
Cc1ccc(/C=N/NC(=O)c2cc(C)oc2C)o1	–	inconclusive: 23.1 µM [activator, single point]
Cc1c(-c2n[nH]c(=S)n2-c2ccc(Br)cc2)nnn1-c1ccc(Cl)cc1	inactive: -5.49%	–
O=C(Cc1cnn(-c2ccccc2)c1)c1ccc(O)c(O)c1O	–	inconclusive: 6.51 µM [activator, full curve]
O=C(Cn1nnc(-c2ccc(CN3CCOCC3)cc2)n1)Nc1nc(-c2ccccc2)cs1	–	inconclusive: 20.6 µM [inhibitor, partial curve, poor fit]

For reference, part of the list above:
SMILES	activity change, negative = inhibition	Potency
CC(O)CNC(=O)c1ccc(-c2nn(C)c(=O)c3ccccc23)cc1 (stereo not given)	–	inconclusive: 23.1 µM [activator, single point]
Cc1ccc(OCCn2ccc(=O)[nH]c2=O)cc1C	inactive: -1.11%	–

Remaining list, next part.

SMILES	activity change, negative = inhibition	Potency
Cc1nnc(NC(=O)CC(NC(=O)C(F)(F)F)c2ccccc2)s1 (stereo not given)	–	inconclusive: 16.4 µM [activator, partial curve, poor fit]
Cc1c(C2CC(=O)N(c3ccccc3)C2=O)[nH]n(-c2ccccc2)c1=O (stereo not given)	inactive: 3.72%	–
Cc1cc(F)ccc1NCC(=O)Nc1ccccc1Br	–	inconclusive: 18.4 µM [activator, partial curve]
O=C(NCCc1ccccc1)c1ccncc1	–	inconclusive: 16.4 µM [activator, partial curve]
COc1ccc(C(=O)NCCCNC(=O)c2cccnc2)cc1Br	inactive: 13.8%	–
Cc1ccc(C(=O)NC2c3ccccc3-c3ccccc32)cc1	–	inconclusive: 6.51 µM [inhibitor, single point]
CC(C)(C)C1CCC(=NNC(=O)C(=O)NCc2cccnc2)CC1 (stereo not given)	inactive: 2.48%	–
COC(=O)c1sccc1NC(=O)CC1C(=O)NCCN1C(=O)Nc1ccccc1 (stereo not given)	–	inconclusive: 0.082 µM [activator, full curve]
COc1cc(C(=O)OCC(=O)NCc2ccc(F)cc2)cc(NC(=O)c2cccs2)c1OC	–	active: 20.6 µM
Cc1cccc(NC(=S)N2CCN(Cc3ccc4c(c3)OCO4)CC2)c1C	inactive: 5.13%	–
N#C/C(=C1/CCCCCN1)c1nnc2n1CCCCC2	–	inconclusive: 25.9 µM [activator, partial curve, poor fit]
Cc1cc[n+](CCc2ccccc2)cc1C	–	inconclusive: 9.2 µM [inhibitor, partial curve]
CCOC(=O)c1ccc(N=c2sc(C(=O)OC)cc(=O)n2-c2ccc(C(=O)OCC)cc2)cc1	–	inconclusive: 29.1 µM [inhibitor, single point]
O=c1c(Cc2c(F)cccc2Cl)c(O)ccn1CCCn1ccnc1	inactive: 7.85%	–
Cc1nn(-c2ccccc2)c2sc(C(=O)OC3CCOC3=O)cc12 (stereo not given)	inactive: 15.2%	–
CC(C(=O)N1CCCc2ccccc21)N1CCN(S(=O)(=O)c2ccccc2F)CC1 (stereo not given)	–	inconclusive: 23.1 µM [inhibitor, single point]
Cc1ccc(/C=N/NC(=O)c2cc(C)oc2C)cc1	–	inconclusive: 18.3 µM [activator, partial curve]
COc1ccc(OCCN2C(=O)NC3(CCc4ccccc4C3)C2=O)cc1 (stereo not given)	inactive: -0.293%	–
COc1ccc(NS(=O)(=O)c2ccc(C)c(NC(=O)CN3C(=O)NC4(CCCC4)C3=O)c2)cc1	–	inconclusive: 23.1 µM [activator, partial curve, poor fit]
CS(=O)(=O)N(Cc1ccc(Cl)cc1)c1ccc(C(=O)N2CCN(c3ccccc3)CC2)cc1	–	inconclusive: 16.4 µM [inhibitor, partial curve, poor fit]
Cc1cccc(NC(=O)COC(=O)c2cc3ccccc3oc2=O)c1	inactive: -5.69%	–
O=C(NC(=S)Nc1cccc2cnccc12)c1ccccc1	–	inconclusive: 2.06 µM [inhibitor, full curve]
